Assay results reported in US20210213010A1, “TLR7/8 AGONISTS AND LIPOSOME COMPOSITIONS” (Torque Therapeutics, Inc., priority 2018, published 2021).

Tested on: human CD3 or mouse PMEL CD8 T cells
Assay: Drug loading onto human CD3 and mouse PMEL CD8 T cells via liposomes (HPLC, Example 82)
Format: cell-based
Settings: antibody versus Arg3 mediated loading

CCNCc1nc2c(N)nc3ccccc3c2n1CC(C)(C)O [Gardiquimod, reference compound]
Levels of loading across 2 different species, fold of each other: ≤ 2 fold
